Measurements reported in PubChem BioAssay AID1159578 (Peter MacCallum Cancer Centre, 2015).
Here is an unselected part of about 18,000 reagents tested. Over the whole deposit, about 1,030 (5.7%) are marked active. 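Inactive calls also include pools with fewer than 3300 nuclei, whose migration was not assessed.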 Raw values vary from plate to plate and are shown uncorrected. Entries without a mark were called inactive. Not all columns of the deposit are shown.

Assay: 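Knock-downs that alter how fast lymphatic endothelial cells migrate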 (primary screen)
System: human lymphatic endothelial cells
Knock-down reagent: siRNA pool against human genes, 40 nM
Timing: 48 h after transfection
Measured: 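High-content imaging of dye-stained cells in a scratch assay measures filled wound area and nuclei per well; duplicate means given as ratio to mock and robust z-score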
Scale: migration robust z-score: higher = faster migration into the scratch; nuclei per well: higher = more cells in the well
Hit rule: 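Pools averaging fewer than 3300 nuclei are never called; remaining pools count as changed when migration robust z lies outside -2 to 2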
Calls: active = migration changed; inactive = no migration change, or too few cells

target | migration robust z-score | migration class with cell-count check | nuclei per well, duplicate mean
CELF1 | 0 | migration z between -2 and 2; enough cells | 6465
GPRC5C | -1.55 | migration z between -2 and 2; enough cells | 6365
ATP6V0B | 0.38 | migration z between -2 and 2; enough cells | 5874
TECPR1 | 0.37 | migration z between -2 and 2; enough cells | 6008
ETV1 | 0.34 | migration z between -2 and 2; enough cells | 5840
TMEM268 | 1.81 | migration z between -2 and 2; enough cells | 4758
B3GALT2 | -0.02 | migration z between -2 and 2; enough cells | 4986
ITM2C | -1.54 | migration z between -2 and 2; enough cells | 4974
MYOM3 | 0.62 | migration z between -2 and 2; enough cells | 5946
EBF2 | -1.23 | migration z between -2 and 2; enough cells | 5390
CFB | -0.8 | migration z between -2 and 2; enough cells | 5039
APOBEC2 | -0.1 | migration z between -2 and 2; enough cells | 6548
RIOK1 | 0.8 | migration z between -2 and 2; enough cells | 6218
TTBK1 | -1.27 | migration z between -2 and 2; enough cells | 4830
CNTN2 | 0.29 | migration z between -2 and 2; enough cells | 6046
MCM10 | 0.8 | migration z between -2 and 2; enough cells | 4111
CAPN10 | 0.18 | migration z between -2 and 2; enough cells | 4942
SLC35G3 | -3.13 | under 3300 nuclei; migration not judged | 3110
ACO2 | 0.73 | migration z between -2 and 2; enough cells | 6603
RPL32 | -3.01 | under 3300 nuclei; migration not judged | 2347
SLC17A6 | 1.12 | migration z between -2 and 2; enough cells | 5424
LYPD6 | -1.15 | migration z between -2 and 2; enough cells | 6467
XRCC6 | -0.62 | migration z between -2 and 2; enough cells | 5318
IRS4 | -1.38 | migration z between -2 and 2; enough cells | 5745
CYP2C19 | -0.07 | migration z between -2 and 2; enough cells | 7411
TRIM5 | 0.49 | migration z between -2 and 2; enough cells | 6362
SCN10A | 1.01 | migration z between -2 and 2; enough cells | 5887
SNX19 | 0.94 | migration z between -2 and 2; enough cells | 5242
NIPSNAP3A | 1.77 | migration z between -2 and 2; enough cells | 5470
RND3 | 0.13 | migration z between -2 and 2; enough cells | 4722
GFI1 | 1.5 | migration z between -2 and 2; enough cells | 5972
MXD3 | -0.05 | migration z between -2 and 2; enough cells | 6336
SYNPO | -0.22 | migration z between -2 and 2; enough cells | 4556
CD7 | -0.76 | migration z between -2 and 2; enough cells | 5692
RSPH10B | 0.4 | migration z between -2 and 2; enough cells | 6058
SPATA13 | -0.42 | migration z between -2 and 2; enough cells | 5471
CDKN2D | -5.53 | under 3300 nuclei; migration not judged | 1445
FYRD1 | -0.4 | migration z between -2 and 2; enough cells | 6020

Continued; the last 4 above are carried over.
target | migration robust z-score | migration class with cell-count check | nuclei per well, duplicate mean
RSPH10B | 0.4 | migration z between -2 and 2; enough cells | 6058
SPATA13 | -0.42 | migration z between -2 and 2; enough cells | 5471
CDKN2D | -5.53 | under 3300 nuclei; migration not judged | 1445
FYRD1 | -0.4 | migration z between -2 and 2; enough cells | 6020
ZNF184 | 0.18 | migration z between -2 and 2; enough cells | 4956
SLC12A6 | 0.88 | migration z between -2 and 2; enough cells | 5346
LCE2C | -1.27 | migration z between -2 and 2; enough cells | 5496
OR10Q1 | 0.84 | migration z between -2 and 2; enough cells | 5855
KITLG | 0.44 | migration z between -2 and 2; enough cells | 5570
DOK5 | 0.97 | migration z between -2 and 2; enough cells | 5636
RXFP1 | 1.25 | migration z between -2 and 2; enough cells | 6224
IL34 | 0.25 | migration z between -2 and 2; enough cells | 6518
DYNC1I1 | 0.65 | migration z between -2 and 2; enough cells | 6333
LMAN1L | -0.89 | migration z between -2 and 2; enough cells | 5312
PRKACG | -1.42 | migration z between -2 and 2; enough cells | 5244
NPBWR1 | 0.39 | migration z between -2 and 2; enough cells | 5862
NBPF7P | -0.43 | migration z between -2 and 2; enough cells | 4116
ARHGAP44 | 0.88 | migration z between -2 and 2; enough cells | 4414
SELENOO | -0.38 | migration z between -2 and 2; enough cells | 6088
PCDHGB3 | 0.58 | migration z between -2 and 2; enough cells | 4256
PPIL1 | -0.36 | migration z between -2 and 2; enough cells | 5652
TMEM119 | 1.15 | migration z between -2 and 2; enough cells | 5877
PRKAR2B | -1.09 | migration z between -2 and 2; enough cells | 4899
CTSF | -0.91 | migration z between -2 and 2; enough cells | 5223
ZNF772 | -2.02 | under 3300 nuclei; migration not judged | 3164
ATP2C1 | -0.02 | migration z between -2 and 2; enough cells | 5906
ACOT8 | 0.2 | migration z between -2 and 2; enough cells | 5290
TUBGCP2 | 0.05 | migration z between -2 and 2; enough cells | 4828
